According to PMC6952816:
For at least one entry, the source does not settle the construct or the ends of the probe. For some assays here: No signal at the amounts used counts as a negative. Protein sequences can lack the tags named with them.

Legend:
[1] = molecular target: T1, WRKY33 (Arabidopsis thaliana) (UniProt Q8S8P5); test: EMSA; conditions: pH and temperature not given; recombinant protein; label: 5'-32P; probe letters rebuilt from the primers and the genome
T1 sequence (looked up, limits assumed): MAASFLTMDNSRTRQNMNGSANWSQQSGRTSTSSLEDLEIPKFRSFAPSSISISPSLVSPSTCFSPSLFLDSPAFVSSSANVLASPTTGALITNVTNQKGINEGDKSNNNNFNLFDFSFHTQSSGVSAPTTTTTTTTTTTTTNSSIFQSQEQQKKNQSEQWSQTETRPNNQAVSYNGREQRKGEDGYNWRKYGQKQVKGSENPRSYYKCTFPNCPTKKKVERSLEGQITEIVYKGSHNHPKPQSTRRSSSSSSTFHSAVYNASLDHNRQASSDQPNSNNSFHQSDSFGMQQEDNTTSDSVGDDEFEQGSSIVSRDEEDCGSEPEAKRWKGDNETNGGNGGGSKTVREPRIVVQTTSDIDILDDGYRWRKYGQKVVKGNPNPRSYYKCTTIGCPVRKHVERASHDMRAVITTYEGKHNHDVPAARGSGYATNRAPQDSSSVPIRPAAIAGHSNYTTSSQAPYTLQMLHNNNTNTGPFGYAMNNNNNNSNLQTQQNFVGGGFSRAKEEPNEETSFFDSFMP

[2] = molecular target: T2, WRKY53 (Arabidopsis thaliana) (UniProt Q9SUP6); test: EMSA; conditions: pH and temperature not given; recombinant protein; label: 5'-32P; probe letters rebuilt from the primers and the genome
T2 sequence (looked up, limits assumed): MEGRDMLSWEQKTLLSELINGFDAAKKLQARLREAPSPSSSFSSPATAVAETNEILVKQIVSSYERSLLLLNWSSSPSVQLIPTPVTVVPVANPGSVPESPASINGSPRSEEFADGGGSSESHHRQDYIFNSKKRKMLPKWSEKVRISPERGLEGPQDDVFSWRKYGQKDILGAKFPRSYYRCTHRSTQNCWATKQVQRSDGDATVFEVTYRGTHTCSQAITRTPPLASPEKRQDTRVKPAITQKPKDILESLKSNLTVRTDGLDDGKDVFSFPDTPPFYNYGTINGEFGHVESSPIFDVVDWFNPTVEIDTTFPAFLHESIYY

## GGTAACCCAAGTATTTTTCATAGATATTATACTTCTAGCGAAAAGCCATCAATTGAGAAAAAAGGCCTCCACGTTTGACCCGTTTTGCCTATAAAAGGATTCTTTAAGATATGGACCTTACTCATCTTCTCCGTTAAACCCATTTAAATAGTTTTCATTGTCCTTGTGA (double strand) [PRX33 promoter fragment]
[1]
  binding result: no binding
[2]
  binding result: binds
